Over roughly 33,000 sequences, “E-score (-0.5 to 0.5)” has its median near -8e-05; the highest 2% begin near 0.23. This is one part of the list.
The sequences below were run against T1, Nrg2 (UniProt P38082) (assay: PBM E-score (8-mer binding enrichment) (E-score (-0.5 to 0.5)); higher = stronger / more preferred TF binding). Conditions: protein concentration: 100 nM; construct: GST-full length.
T1 sequence: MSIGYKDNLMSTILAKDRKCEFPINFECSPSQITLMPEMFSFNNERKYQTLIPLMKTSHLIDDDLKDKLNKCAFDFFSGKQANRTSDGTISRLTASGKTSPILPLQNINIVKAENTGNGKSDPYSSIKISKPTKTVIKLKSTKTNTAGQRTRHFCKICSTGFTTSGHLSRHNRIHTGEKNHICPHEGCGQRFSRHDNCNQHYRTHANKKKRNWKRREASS
How it was run: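 Full-length yeast transcription factors or their DNA-binding domains, GST-tagged and expressed with PURExpress, were applied at about 100-200 nM to universal all-10-mer Agilent arrays. These arrays had been made double-stranded by primer extension on fresh or once-stripped slides. Detection used fluorescent anti-GST, normalisation used masliner, and E-scores for ungapped eight-base words pooled with reverse complements came from the Universal PBM Analysis Suite.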
AGCTCATA was tested, and the “PBM E-score” value was 0.12.
In the case of AGGGAGCA, the “PBM E-score” value is reported as -0.261.
With TTCGTAAA the “PBM E-score” value was -0.00824.
In the case of AGCATTGA, the “PBM E-score” value is reported as -0.0178.
ACACAACT was tested, and the “PBM E-score” value was 0.0781.
In the case of AGTGCGCG, the “PBM E-score” value is reported as -0.0388.
In the case of GTGATCAA, the “PBM E-score” value is reported as 0.103.
For ATGTTACC, the “PBM E-score” value was 0.00528.
With CTAATGAG the “PBM E-score” value was 0.028.
In the case of ATAGCACG, the “PBM E-score” value is reported as -0.163.
For CCGCACGA, the “PBM E-score” value was 0.0117.
In the case of AAGGTATT, the “PBM E-score” value is reported as 0.125.
In the case of CCCATGAC, the “PBM E-score” value is reported as -0.0865.
For CAATAGTC, the “PBM E-score” value was -0.0181.
With ACCGGATA the “PBM E-score” value was -0.184.
In the case of AAAACGTT, the “PBM E-score” value is reported as 0.00632.
With CCTCAAGC the “PBM E-score” value was -0.15.
With GTGGACTA the “PBM E-score” value was 0.0773.
With GGCAGGCA the “PBM E-score” value was -0.153.
With CAAATAAA the “PBM E-score” value was 0.053.
For ACGCGCCT, the “PBM E-score” value was -0.0319.
GTGCGGGA was tested, and the “PBM E-score” value was -0.0809.
In the case of AAGCGGTG, the “PBM E-score” value is reported as -0.316.
With AGGAACCC the “PBM E-score” value was 0.0453.
For CCTATTTA, the “PBM E-score” value was 0.0786.
ACCGCACT was tested, and the “PBM E-score” value was 0.0895.
CAACAGGA was tested, and the “PBM E-score” value was -0.152.
In the case of AATAACAG, the “PBM E-score” value is reported as 0.102.
AGTCGAAG was tested, and the “PBM E-score” value was -0.145.
For CTACGGGA, the “PBM E-score” value was -0.0455.
With ATACCCGC the “PBM E-score” value was 0.182.
For ACCTCGCT, the “PBM E-score” value was 0.1.
For ACGTGGCG, the “PBM E-score” value was -0.122.
For ATGCTCTC, the “PBM E-score” value was -0.118.
In the case of CTTAAGGA, the “PBM E-score” value is reported as 0.0706.
GTTCGAAC was tested, and the “PBM E-score” value was 0.233.
With AGGTGCGG the “PBM E-score” value was -0.00509.
With TATATAGA the “PBM E-score” value was 0.118.
In the case of AAACATTT, the “PBM E-score” value is reported as 0.134.
In the case of AAGACAGA, the “PBM E-score” value is reported as 0.172.
GGTGCACA was tested, and the “PBM E-score” value was 0.0914.
ATCGAAAG was tested, and the “PBM E-score” value was 0.176.
For ATTCGCAC, the “PBM E-score” value was 0.00138.
CGTTAGAC was tested, and the “PBM E-score” value was -0.103.
For AGTATGAG, the “PBM E-score” value was 0.111.
With CAAACTCG the “PBM E-score” value was 0.0969.
AGGCCGCG was tested, and the “PBM E-score” value was -0.0431.
With CAAATGAG the “PBM E-score” value was -0.129.
For GAACGGAA, the “PBM E-score” value was 0.0643.
In the case of ACCGGAAT, the “PBM E-score” value is reported as -0.0361.
With GATAGAGA the “PBM E-score” value was -0.0171.
In the case of AATATTGG, the “PBM E-score” value is reported as 0.0451.
In the case of CGGATGCC, the “PBM E-score” value is reported as 0.0429.
In the case of AGCCCGTC, the “PBM E-score” value is reported as -0.283.
AAAACGAA was tested, and the “PBM E-score” value was 0.139.
For AATGGTTG, the “PBM E-score” value was 0.0582.
For ACAGACGT, the “PBM E-score” value was -0.142.
For GCCACCCC, the “PBM E-score” value was -0.255.
For TGAAGTCA, the “PBM E-score” value was 0.0147.
For CATTGATA, the “PBM E-score” value was 0.0883.
In the case of CACATATA, the “PBM E-score” value is reported as 0.0706.
For CACGACAG, the “PBM E-score” value was 0.0324.
With GCCTATTA the “PBM E-score” value was 0.16.
In the case of CCCTGGAC, the “PBM E-score” value is reported as 0.295.
AATTCTCC was tested, and the “PBM E-score” value was 0.118.
For CATGAACA, the “PBM E-score” value was -0.0371.
ACCACTAA was tested, and the “PBM E-score” value was 0.0789.
In the case of AAGGTGGT, the “PBM E-score” value is reported as -0.062.
ACGACAAT was tested, and the “PBM E-score” value was 0.093.
In the case of ATTAGAGA, the “PBM E-score” value is reported as 0.0159.
With CGAACAAG the “PBM E-score” value was 0.165.
With CCAGTCAG the “PBM E-score” value was -0.0932.
GCATGATA was tested, and the “PBM E-score” value was 0.0399.
For AGTGTGTC, the “PBM E-score” value was 0.0992.
GTCCGAAA was tested, and the “PBM E-score” value was 0.179.
In the case of ACACCCGT, the “PBM E-score” value is reported as -0.124.
For GGGCTATA, the “PBM E-score” value was -0.17.
CGCAAGGA was tested, and the “PBM E-score” value was 0.163.
With CGCGGAGC the “PBM E-score” value was -0.0754.
With GGTTTGAA the “PBM E-score” value was 0.188.
For CATAGTGC, the “PBM E-score” value was -0.0272.
In the case of AAGTTAGC, the “PBM E-score” value is reported as 0.0798.
For ATATTCCG, the “PBM E-score” value was 0.118.
In the case of TGTGCACA, the “PBM E-score” value is reported as -0.26.
In the case of CCGTTAGA, the “PBM E-score” value is reported as -0.0454.
For GCAGACGA, the “PBM E-score” value was 0.0406.
In the case of ATACGACG, the “PBM E-score” value is reported as 0.0344.
CAACGTAG was tested, and the “PBM E-score” value was -0.0459.
With CTGACCCA the “PBM E-score” value was -0.0958.
For CGCTCTTA, the “PBM E-score” value was 0.18.
With GCGGCACC the “PBM E-score” value was -0.0541.
In the case of GCAAGTTA, the “PBM E-score” value is reported as 0.175.
GCTGCGAC was tested, and the “PBM E-score” value was -0.0909.
In the case of CCCGTTGC, the “PBM E-score” value is reported as -0.0994.
With CCGACGTC the “PBM E-score” value was 0.0192.
In the case of TAGAGATA, the “PBM E-score” value is reported as 0.0396.
For CATACTAA, the “PBM E-score” value was 0.114.
CTGGGCAC was tested, and the “PBM E-score” value was -0.168.
For CTATTCTC, the “PBM E-score” value was 0.118.
For ACTGATAA, the “PBM E-score” value was 0.114.
ACTCCTCT was tested, and the “PBM E-score” value was -0.04.
With ATCTGTCC the “PBM E-score” value was -0.0644.
With AAGGAAAT the “PBM E-score” value was 0.112.
CGGCTTAC was tested, and the “PBM E-score” value was -0.0785.
In the case of AGGCAGGA, the “PBM E-score” value is reported as -0.0909.
In the case of GTGCCGAA, the “PBM E-score” value is reported as 0.0374.
For CGCAGCAG, the “PBM E-score” value was -0.0325.
In the case of AGTTGTAC, the “PBM E-score” value is reported as 0.103.
For CGAGAGTC, the “PBM E-score” value was -0.226.
With AAGAACAG the “PBM E-score” value was 0.0826.
CCATGGAG was tested, and the “PBM E-score” value was -0.0379.
In the case of CAAAGAAG, the “PBM E-score” value is reported as -0.0586.
GACAGAAA was tested, and the “PBM E-score” value was 0.116.
With AGCGGGTC the “PBM E-score” value was -0.21.
For GACAGCAC, the “PBM E-score” value was 0.0717.
CTCACGAA was tested, and the “PBM E-score” value was -0.0171.
AAATTGAA was tested, and the “PBM E-score” value was -0.0553.
For AGGAGGGG, the “PBM E-score” value was -0.065.
AACTCGCA was tested, and the “PBM E-score” value was 0.0422.
In the case of GCACATTA, the “PBM E-score” value is reported as 0.047.
In the case of AAGAGAAC, the “PBM E-score” value is reported as 0.0193.
CCTAGCCA was tested, and the “PBM E-score” value was -0.0877.
For ATATGGGA, the “PBM E-score” value was 0.0558.
In the case of GATACTCC, the “PBM E-score” value is reported as 0.143.
For AGCGAATC, the “PBM E-score” value was 0.00088.
For AAACAGTC, the “PBM E-score” value was -0.0566.
CAGTATAA was tested, and the “PBM E-score” value was 0.16.
For GCCTAGAC, the “PBM E-score” value was -0.271.
In the case of CGAGTCGA, the “PBM E-score” value is reported as 0.0562.
In the case of TCGTTTCA, the “PBM E-score” value is reported as 0.171.
In the case of CGGGAGAG, the “PBM E-score” value is reported as -0.137.
ACATTGCC was tested, and the “PBM E-score” value was -0.0505.
In the case of GATACCAA, the “PBM E-score” value is reported as 0.215.
With CTTGACGA the “PBM E-score” value was -0.137.
CATCGCGC was tested, and the “PBM E-score” value was 0.0459.
AATAATAG was tested, and the “PBM E-score” value was 0.0626.
In the case of GCCTACGC, the “PBM E-score” value is reported as -0.19.
With CTCGCAAC the “PBM E-score” value was 0.0442.
With ACGTGGTA the “PBM E-score” value was -0.0632.
With CAAAAAAG the “PBM E-score” value was 0.116.
With AAAGTATG the “PBM E-score” value was 0.0248.
CCCACGCA was tested, and the “PBM E-score” value was 0.08.
In the case of ATTAATCC, the “PBM E-score” value is reported as 0.0528.
TCTGCTAA was tested, and the “PBM E-score” value was -0.0809.
For AGTTAATG, the “PBM E-score” value was 0.078.
ACGTGGTC was tested, and the “PBM E-score” value was -0.0753.
In the case of CTTGCTAC, the “PBM E-score” value is reported as -0.00165.
For ACTGGATA, the “PBM E-score” value was 0.168.
With AACCCCGT the “PBM E-score” value was 0.194.
In the case of ACACTTAA, the “PBM E-score” value is reported as -0.0242.
In the case of ATGTAGGG, the “PBM E-score” value is reported as -0.0877.
